PubChem BioAssay AID504764 | Drosophila RNAi Screening Center, 2011
The screen tested about 22,000 reagents; below is an unselected part of those with a known target gene and a result. In the full data, 403 (1.9%) were called active. 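Unnormalised raw counts per well; ratio z-scores behind the hit calls and whether each hit raises or lowers signal are not deposited.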 Not stated in the record: the amount of reagent.

Screen: 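Knock-downs that raise or lower a Notch target reporter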 (primary screen)
System: Drosophila Kc167 cells
Knock-down reagent: long dsRNA against Drosophila genes
Timing: about 5 days (4 days dsRNA, then 24 h after transfection)
Challenge: transfection of constitutively active membrane-tethered Notch lacking the extracellular domain, read 24 h later
Read-out: 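Light from a Notch-responsive E(spl)m3 luciferase reporter under active Notch, with control-promoter and no-Notch reporter wells to normalise; raw counts from paired wells a and b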
Direction: induced reporter light, run 1, well a and induced reporter light, run 1, well b: higher = more light from the Notch target reporter with active Notch; control promoter light, run 1, well a and control promoter light, run 1, well b: higher = more light from the viral control promoter (cell number, transfection, viability); uninduced reporter light, run 1, well a: higher = more light from the Notch target reporter without active Notch
Active means: 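Wells with low control signal or poorly matching duplicates excluded; duplicates averaged; per source plate, z beyond ±2 for induced/control log2 ratio or beyond ±1.8 for induced/uninduced marks a hit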
Meaning of the calls: active = modifier hit (raised or lowered Notch signal); inactive = not a hit

predicted target | amplicon | induced reporter light, run 1, well a | induced reporter light, run 1, well b | control promoter light, run 1, well a | control promoter light, run 1, well b | uninduced reporter light, run 1, well a | Call
CG13313 | DRSC09984 | 1.70e5 | 1.54e5 | 1.63e5 | 1.63e5 | 10265 | inactive
REPTOR-BP | DRSC02683 | 1.35e5 | 1.53e5 | 85950 | 1.13e5 | 23055 | inactive
CG3687 | DRSC06850 | 48530 | 39980 | 28870 | 40140 | 3080 | inactive
sif | DRSC08759 | 1.57e5 | 1.89e5 | 1.19e5 | 1.19e5 | 12645 | inactive
sif | DRSC11395 | 3.27e5 | 3.69e5 | 3.55e5 | 2.74e5 | 16350 | inactive
Gpo3 | DRSC01978 | 1.27e5 | 1.41e5 | 1.59e5 | 1.66e5 | 11630 | inactive
CG7381 | DRSC16238 | 1.19e5 | 1.46e5 | 89295 | 88485 | 11242 | inactive
miple2 | DRSC08723 | 1.92e5 | 1.25e5 | 1.62e5 | 1.59e5 | 9390 | inactive
GstE8 | DRSC06678 | 1.10e5 | 1.09e5 | 1.92e5 | 2.07e5 | 8865 | inactive
bc10 | DRSC11326 | 2.27e5 | 2.31e5 | 4.24e5 | 3.00e5 | 17515 | inactive
Hsp26 | DRSC11189 | 78540 | 1.05e5 | 64780 | 28395 | 8815 | inactive
CG31128 | DRSC13675 | 1.72e5 | 1.51e5 | 1.58e5 | 1.59e5 | 14815 | inactive
DNAlig1 | DRSC04518 | 1.88e5 | 1.62e5 | 1.45e5 | 1.91e5 | 13205 | inactive
Cpr23B | DRSC00555 | 1.10e5 | 94205 | 94370 | 79570 | 7915 | inactive
CG12917 | DRSC06231 | 2.35e5 | 1.99e5 | 2.33e5 | 2.73e5 | 16000 | inactive
Rok | DRSC20277 | 80760 | 66770 | 79075 | 62975 | 4520 | active
Cubn2 | DRSC10561 | 1.80e5 | 1.80e5 | 2.65e5 | 1.57e5 | 8950 | inactive
Osi21 | DRSC02408 | 1.11e5 | 1.53e5 | 72200 | 87275 | 16692 | inactive
Su(z)2 | DRSC07558 | 9735 | 7175 | 11035 | 6805 | 2620 | inactive
CG13108 | DRSC02206 | 1.04e5 | 1.19e5 | 57270 | 85340 | 15765 | inactive
CG12374 | DRSC06143 | 86255 | 1.09e5 | 1.48e5 | 1.24e5 | 9045 | inactive
RacGAP84C | DRSC12630 | 1.30e5 | 1.10e5 | 81565 | 78325 | 8190 | inactive

3 of these entries in another layout.
predicted target,amplicon,"induced reporter light, run 1, well a","induced reporter light, run 1, well b","control promoter light, run 1, well a","control promoter light, run 1, well b","uninduced reporter light, run 1, well a",Call
bc10,DRSC11326,2.27e5,2.31e5,4.24e5,3.00e5,17515,inactive
Hsp26,DRSC11189,78540,1.05e5,64780,28395,8815,inactive
CG31128,DRSC13675,1.72e5,1.51e5,1.58e5,1.59e5,14815,inactive

The results go on.
predicted target | amplicon | induced reporter light, run 1, well a | induced reporter light, run 1, well b | control promoter light, run 1, well a | control promoter light, run 1, well b | uninduced reporter light, run 1, well a | Call
Dp | DRSC07402 | 78715 | 71375 | 86500 | 90305 | 6625 | inactive
CG16903 | DRSC18561 | 70785 | 78415 | 87910 | 84355 | 4570 | active
GAPsec | DRSC10564 | 1.07e5 | 97280 | 92070 | 24060 | 9240 | inactive
CG1647 | DRSC15134 | 1.63e5 | 1.97e5 | 1.86e5 | 1.71e5 | 13120 | inactive
CG15870 | DRSC06588 | 83425 | 94255 | 1.01e5 | 79985 | 8115 | inactive
CG16896 | DRSC04284 | 1.99e5 | 2.00e5 | 2.31e5 | 2.20e5 | 14745 | inactive
CG42366 | DRSC02760 | 70795 | 83800 | 46320 | 55155 | 14160 | inactive
NitFhit | DRSC08680 | 1.45e5 | 1.06e5 | 1.78e5 | 1.52e5 | 8395 | inactive
mRpL55 | DRSC14764 | 1.43e5 | 1.28e5 | 1.90e5 | 1.91e5 | 11205 | inactive
Jheh2 | DRSC06530 | 1.74e5 | 1.46e5 | 1.55e5 | 1.85e5 | 12250 | inactive
hkb | DRSC12377 | 1.24e5 | 93140 | 96575 | 73665 | 5765 | inactive
sad | DRSC16630 | 30255 | 31005 | 37695 | 24435 | 2040 | inactive
